The list shows a part of the results.
How the values were obtained:
Test in all cases: glycan array binding signal (z-score within array); higher = stronger binding
Details in all cases: glycan notation: IUPAC condensed, linker removed
[1] = molecular target: Neu5Ac(a2-6)GlcNAc(b1-4)GlcNAc
How it was run: (§1)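 Glycan array binding is given as a within-array Z-score, which can be read as non-binding when negative. The arrays, 3228 of them, came from the Consortium for Functional Glycomics database and were retained only where the protein sequence was available. Z-scores were averaged across arrays of the same protein sequence at different concentrations or buffers and across linkers.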

[2] = molecular target: Neu5Ac(a2-6)GlcNAc(b1-4)GlcNAc(b1-4)GlcNAc
How it was run: as §1

Neu5Ac(a2-8)Neu5Ac = molecular target: Neu5Ac(a2-8)Neu5Ac
How it was run: as §1

[3] = molecular target: Neu5Ac(a2-8)Neu5Ac(a2-3)Gal(b1-3)GalNAc(b1-4)[Neu5Ac(a2-3)]Gal(b1-4)Glc
How it was run: as §1

[4] = molecular target: Neu5Ac(a2-8)Neu5Ac(a2-3)Gal(b1-3)GalNAc(b1-4)[Neu5Ac(a2-8)Neu5Ac(a2-3)]Gal(b1-4)Glc
How it was run: as §1

[5] = molecular target: Neu5Ac(a2-8)Neu5Ac(a2-3)Gal(b1-4)Glc
How it was run: as §1

[6] = molecular target: Neu5Ac(a2-8)Neu5Ac(a2-3)Gal(b1-4)GlcNAc
How it was run: as §1

[7] = molecular target: Neu5Ac(a2-8)Neu5Ac(a2-3)[Gal(b1-3)GalNAc(b1-4)]Gal(b1-4)Glc
How it was run: as §1

[8] = molecular target: Neu5Ac(a2-8)Neu5Ac(a2-3)[GalNAc(b1-4)]Gal(b1-4)Glc
How it was run: as §1

[9] = molecular target: Neu5Ac(a2-8)Neu5Ac(a2-8)Neu5Ac
How it was run: as §1

[10] = molecular target: Neu5Ac(a2-8)Neu5Ac(a2-8)Neu5Ac(a2-3)Gal(b1-4)Glc
How it was run: as §1

[11] = molecular target: Neu5Ac(a2-8)Neu5Ac(a2-8)Neu5Ac(a2-3)[Gal(b1-3)GalNAc(b1-4)]Gal(b1-4)Glc
How it was run: as §1

[12] = molecular target: Neu5Ac(a2-8)Neu5Ac(a2-8)Neu5Ac(a2-3)[GalNAc(b1-4)]Gal(b1-4)Glc
How it was run: as §1

[13] = molecular target: Neu5Ac(a2-8)Neu5Ac(a2-8)Neu5Ac(a2-8)Neu5Ac(a2-3)[GalNAc(b1-4)]Gal(b1-4)Glc
How it was run: as §1

[14] = molecular target: Neu5Ac(a2-8)Neu5Gc(a2-3)Gal(b1-4)GlcNAc
How it was run: as §1

[15] = molecular target: Neu5Ac(b2-6)Gal(b1-4)GlcNAc
How it was run: as §1

Neu5Ac(b2-6)GalNAc = molecular target: Neu5Ac(b2-6)GalNAc
How it was run: as §1

[16] = molecular target: Neu5Ac9Ac(a2-3)Gal(b1-3)GlcNAc
How it was run: as §1

[17] = molecular target: Neu5Ac9Ac(a2-3)Gal(b1-4)GlcNAc
How it was run: as §1

[18] = molecular target: Neu5Ac9Ac(a2-6)Gal(b1-4)GlcNAc
How it was run: as §1

[19] = molecular target: Neu5Gc(a2-3)Gal(b1-3)GlcNAc
How it was run: as §1

[20] = molecular target: Neu5Gc(a2-3)Gal(b1-3)[Fuc(a1-4)]GlcNAc
How it was run: as §1

Neu5Gc(a2-3)Gal(b1-4)Glc = molecular target: Neu5Gc(a2-3)Gal(b1-4)Glc
How it was run: as §1

[21] = molecular target: Neu5Gc(a2-3)Gal(b1-4)GlcNAc
How it was run: as §1

[22] = molecular target: Neu5Gc(a2-3)Gal(b1-4)GlcNAc(b1-3)Gal(b1-4)GlcNAc(b1-2)Man(a1-3)[Neu5Gc(a2-3)Gal(b1-4)GlcNAc(b1-3)Gal(b1-4)GlcNAc(b1-2)Man(a1-6)]Man(b1-4)GlcNAc(b1-4)GlcNAc
How it was run: as §1

[23] = molecular target: Neu5Gc(a2-3)Gal(b1-4)[Fuc(a1-3)]GlcNAc
How it was run: as §1

[24] = molecular target: Neu5Gc(a2-6)Gal(b1-4)GlcNAc
How it was run: as §1

Neu5Gc(a2-6)GalNAc = molecular target: Neu5Gc(a2-6)GalNAc
How it was run: as §1

[25] = molecular target: Neu5Gc(a2-8)Neu5Ac(a2-3)Gal(b1-4)GlcNAc
How it was run: as §1

[26] = molecular target: Neu5Gc(a2-8)Neu5Gc(a2-3)Gal(b1-4)GlcNAc
How it was run: as §1

B1: R2-fiber (Pseudomonas aeruginosa), Q9S576 (protein)
chain: HHHHHHKVAKDLVVSLAYQVRTEDGVLVDESPVSAPLDYLHGHGSLISGLETALEGHEVGDKFDVAVGANDAYGQYDENLVQRVPKDVFMGVDELQVGMRFLAETDQGPVPVEITAVEDDHVVVDGNHMLAGQNLKFNVEVVAIREATEEELAHGHVHGAHDHHHDHDHDGCCGGHGHDHGHEHGGEGCCGGKGNGGCGCHENLYFQGVTAGMALAATDIPGLDASKLVSGVLAEQRLPVFARGLATAVSNSSDPNTATVPLMLTNHANGPVAGRYFYIQSMFYPDQNGNASQIATSYNATSEMYVRVSYAANPSIREWLPWQRCDIGGSFTKEADGELPGGVNLDSMVTSGWWSQSFTAQAASGANYPIVRAGLLHVYAASSNFIYQTYQAYDGESFYFRCRHSNTWFPWRRMWHGGDFNPSDYLLKSGFYWNALPGKPATFPPSAHNHDVGQLTSGILPLARGGVGSNTAAGARSTIGAGVPATASLGASGWWRDNDTGLIRQWGQVTCPADADASITFPIPFPTLCLGGYANQTSAFHPGTDASTGFRGATTTTAVIRNGYFAQAVLSWEAFGR
- glycan array binding signal (z-score) [1]: -0.379
- glycan array binding signal (z-score) [2]: -0.658
- glycan array binding signal (z-score) (Neu5Ac(a2-8)Neu5Ac): 0.33
- glycan array binding signal (z-score) [3]: -0.504
- glycan array binding signal (z-score) [4]: -0.61
- glycan array binding signal (z-score) [5]: -0.432
- glycan array binding signal (z-score) [6]: 0.548
- glycan array binding signal (z-score) [7]: -0.829
- glycan array binding signal (z-score) [8]: 0.721
- glycan array binding signal (z-score) [9]: -0.074
- glycan array binding signal (z-score) [10]: -0.462
- glycan array binding signal (z-score) [11]: 0.353
- glycan array binding signal (z-score) [12]: 0.432
- glycan array binding signal (z-score) [13]: 0.115
- glycan array binding signal (z-score) [14]: -0.244
- glycan array binding signal (z-score) [15]: -0.048
- glycan array binding signal (z-score) (Neu5Ac(b2-6)GalNAc): -0.935
- glycan array binding signal (z-score) [16]: -1
- glycan array binding signal (z-score) [17]: -1.16
- glycan array binding signal (z-score) [18]: -0.75
- glycan array binding signal (z-score) [19]: -0.167
- glycan array binding signal (z-score) [20]: -0.038
- glycan array binding signal (z-score) (Neu5Gc(a2-3)Gal(b1-4)Glc): 0.214
- glycan array binding signal (z-score) [21]: -0.701
- glycan array binding signal (z-score) [22]: 0.21
- glycan array binding signal (z-score) [23]: -0.059
- glycan array binding signal (z-score) [24]: -0.324
- glycan array binding signal (z-score) (Neu5Gc(a2-6)GalNAc): -0.199
- glycan array binding signal (z-score) [25]: -0.698
- glycan array binding signal (z-score) [26]: -0.87

Source: the supplement of paper PMC8728848
